Experimental data reported in US20090232838A1 (priority 2005, published 2009).
Bridges are numbered along the chain shown (N, C = ends). [ ]: non-standard residue; d: D form. dPhe(4-Br) = N[C@H](Cc1ccc(Br)cc1)C(=O)O; 1Nal = N[C@@H](Cc1cccc2ccccc12)C(=O)O; 2Nal = N[C@@H](Cc1ccc2ccccc2c1)C(=O)O; d2Nal = N[C@H](Cc1ccc2ccccc2c1)C(=O)O; Aib = CC(C)(N)C(=O)O

Test: general procedure: Fmoc solid-phase peptide synthesis; Rink Amide MBHA resin (Novabiochem, 0.66 mmol/g); Wang resin if C-terminal OH; HBTU/HOBT in DMF
Conditions: whole synthesis, analytical HPLC, scale of the general procedure 1.00 mmol, 0.3 mmol

Row | Substance | purity (crude or final not stated) [%]
1 | Ac-c(Cys-Glu-His-D-2-Nal-Arg-Trp-Ala-Cys)-Pro-Pro-Lys-Asp-β-Ala-Tyr-Gly-Arg-Lys-Lys-Arg-Arg-Arg-Arg-Arg-Gln-NH2 | 99.0
2 | Tyr-Gly-Arg-Lys-Lys-Arg-Arg-Gln-Arg-Arg-Arg-Doc-Nle-c(Asp-His-D-2-Nal-Arg-Trp-Lys)-NH2 | 99
3 | Ac-c(Cys-Glu-His-D-2-Nal-Arg-1-Nal-Ala-Cys)-Pro-Pro-Lys-Asp-β-Ala-Tyr-Gly-Arg-Lys-Arg-Arg-Arg-Gln-Arg-Arg-Arg-NH2 | 99.9
4 | Ac-CEH[dPhe(4-Br)]RWGCPPKD-NH2 (disulfide 1-8) | 99.9
5 | Ac-Nle-c(Cys-D-Ala-His-D-Phe-Arg-Trp-Cys)-β-Ala-Arg-Lys-Arg-Arg-Arg-Gln-Arg-Arg-Arg-NH2 | 99.9
6 | Ac-Nle-c(Cys-D-Ala-His-D-Phe-Arg-Trp-Cys)-β-Ala-Tyr-Gly-Arg-Lys-Arg-Arg-Arg-Gln-Arg-Arg-Arg-NH2 | 98.8
7 | Ac-c(Cys-Glu-His-D-2-Nal-Arg-Bal-Ala-Cys)-Pro-Pro-Lys-Asp-β-Ala-Arg-Arg-Arg-Arg-Arg-Arg-Gln-Arg-Arg-Arg-NH2 | 99.9
8 | Ac-c(Cys-Glu-His-D-2-Nal-Arg-Bal-Ala-Cys)-Pro-Pro-Lys-Asp-β-Ala-Tyr-Gly-Arg-Lys-Lys-Arg-Arg-Gln-Arg-Arg-Arg-NH2 | 99.0
9 | Ac-c(Cys-Glu-His-D-2-Nal-Arg-Bal-Ala-Cys)-Pro-Pro-Lys-Asp-β-Ala-Tyr-Gly-Arg-Arg-Lys-Arg-Arg-Gln-Arg-Arg-Arg-NH2 | 99.9
10 | Ac-c(Cys-Glu-His-D-2-Nal-Arg-2-Nal-Ala-Cys)-Pro-Pro-Lys-Asp-β-Ala-Arg-Arg-Arg-Arg-Arg-Arg-Gln-Arg-Arg-Arg-NH2 | 99.9
11 | Ac-Nle-c(Cys-D-Ala-His-D-Phe-Arg-Trp-Cys)-β-Ala-Gly-Arg-Arg-Lys-Arg-Arg-Gln-Arg-Arg-Arg-NH2 | 99.9
12 | Ac-Nle-c(Asp-His-D-2-Nal-Arg-Trp-Lys)-Doc-Doc-Tyr-Gly-Arg-Lys-Lys-Arg-Arg-Gln-Arg-Arg-Arg-NH2 | 97.1
13 | Ac-Nle-c(Asp-His-D-2-Nal-Arg-Trp-Lys)-Pro-Pro-Lys-Asp-Tyr-Gly-Arg-Lys-Lys-Arg-Arg-Gln-Arg-Arg-Arg-NH2 | 99.9
14 | Ac-c(Cys-Glu-His-D-2-Nal-Arg-2-Nal-Ala-Cys)-Pro-Pro-Lys-Asp-β-Ala-Gly-Arg-Arg-Lys-Arg-Arg-Gln-Arg-Arg-Arg-NH2 | 99.9
15 | Ac-CEH[d2Nal]R[2Nal][Aib]CPPKD-NH2 (disulfide 1-8) | 94.9
16 | Ac-c(Cys-Glu-His-D-2-Nal-Arg-2-Nal-Ala-Cys)-Pro-Pro-Lys-Asp-β-Ala-Tyr-Gly-Arg-Arg-Lys-Arg-Arg-Gln-Arg-Arg-Arg-NH2 | 99.9
17 | Tyr-Gly-Arg-Lys-Lys-Arg-Arg-Gln-Arg-Arg-Arg-Nle-c(Asp-His-D-2-Nal-Arg-Trp-Lys)-NH2 | 99
18 | Ac-c(Cys-Glu-His-D-2-Nal-Arg-Bal-Ala-Cys)-Pro-Pro-Lys-Asp-β-Ala-Arg-Arg-Arg-Arg-Arg-Gln-Arg-Arg-Arg-NH2 | 99.9
19 | Ac-Nle-c(Cys-D-Ala-His-D-Phe-Arg-Trp-Cys)-β-Ala-Tyr-Gly-Arg-Lys-Lys-Arg-Gln-Arg-Arg-Arg-Arg-NH2 | 99.9
20 | Ac-c(Cys-Glu-His-D-2-Nal-Arg-Trp-Ala-Cys)-Pro-Pro-Lys-Asp-β-Ala-Tyr-Gly-Arg-Lys-Lys-Arg-Arg-Arg-Arg-Gln-Arg-NH2 | 99.0
21 | Ac-c(Cys-Glu-His-D-2-Nal-Arg-Trp-Ala-Cys)-Pro-Pro-Lys-Asp-β-Ala-Tyr-Gly-Arg-Lys-Lys-Gln-Arg-Arg-Arg-Arg-Arg-NH2 | 99.0
22 | Ac-c(Cys-Glu-His-D-2-Nal-Arg-Trp-Ala-Cys)-Pro-Pro-Lys-Asp-β-Ala-Tyr-Gly-Arg-Lys-Lys-Arg-Gln-Arg-Arg-Arg-Arg-NH2 | 99.0
23 | Ac-c(Cys-Glu-His-D-2-Nal-Arg-Trp-Ala-Cys)-Pro-Pro-Lys-Asp-β-Ala-Tyr-Gly-Arg-Lys-Gln-Lys-Arg-Arg-Arg-Arg-Arg-NH2 | 95.0
24 | Ac-CEH[d2Nal]R[1Nal]ACPPKD-NH2 (disulfide 1-8) | 99.9
25 | Ac-c(Cys-Glu-His-D-2-Nal-Arg-1-Nal-Ala-Cys)-Pro-Pro-Lys-Asp-β-Ala-Tyr-Gly-Arg-Lys-Lys-Arg-Arg-Gln-Arg-Arg-Arg-NH2 | 99.0
26 | Ac-c(Cys-Glu-His-D-2-Nal-Arg-2-Nal-Ala-Cys)-Pro-Pro-Lys-Asp-β-Ala-Tyr-Gly-Arg-Lys-Arg-Arg-Arg-Gln-Arg-Arg-Arg-NH2 | 99.45
27 | Ac-c(Cys-Glu-His-D-2-Nal-Arg-Trp-Gly-Cys)-Pro-Pro-Lys-Asp-Doc-Tyr-Gly-Arg-Lys-Lys-Arg-Arg-Gln-Arg-Arg-Arg-NH2 | 97.3

Row | Substance | purity (crude or final not stated) [%]
28 | Ac-c(Cys-Glu-His-D-2-Nal-Arg-2-Nal-Ala-Cys)-Pro-Pro-Lys-Asp-β-Ala-Arg-Lys-Arg-Arg-Arg-Gln-Arg-Arg-Arg-NH2 | 99.2
29 | Ac-Nle-c(Asp-His-D-2-Nal-Arg-Trp-Lys)-Pro-Pro-Lys-Asp-Doc-Tyr-Gly-Arg-Lys-Lys-Arg-Arg-Gln-Arg-Arg-Arg-NH2 | 99.9
30 | Ac-CEH[d2Nal]RWACPPKD-NH2 (disulfide 1-8) | 99.1
31 | Ac-Nle-c(Cys-D-Ala-His-D-Phe-Arg-Trp-Cys)-(Doc)2-Tyr-Gly-Arg-Lys-Lys-Arg-Arg-Gln-Arg-Arg-Arg-NH2 | 99.9
32 | Ac-c(Cys-Glu-His-D-2-Nal-Arg-1-Nal-Ala-Cys)-Pro-Pro-Lys-Asp-β-Ala-Arg-Arg-Arg-Arg-Arg-Gln-Arg-Arg-Arg-NH2 | 99.9
33 | Ac-c(Cys-Glu-His-D-2-Nal-Arg-Trp-Ala-Cys)-Pro-Pro-Lys-Asp-β-Ala-Tyr-Gly-Arg-Lys-Lys-Arg-Arg-Gln-Arg-Arg-Arg-NH2 | 99.2
34 | Ac-c(Cys-Glu-His-D-2-Nal-Arg-2-Nal-Ala-Cys)-Pro-Pro-Lys-Asp-β-Ala-Gly-Arg-Lys-Arg-Arg-Arg-Gln-Arg-Arg-Arg-NH2 | 99.9
35 | Ac-Nle-c(Asp-His-D-2-Nal-Arg-Trp-Lys)-β-Ala-Tyr-Gly-Arg-Lys-Lys-Arg-Arg-Gln-Arg-Arg-Arg-NH2 | 93.8
36 | Ac-Nle-c(Cys-D-Ala-His-D-Phe-Arg-Trp-Cys)-β-Ala-Gly-Arg-Arg-Arg-Arg-Arg-Gln-Arg-Arg-Arg-Arg-NH2 | 99.9
37 | Ac-c(Cys-Glu-His-D-2-Nal-Arg-Bal-Ala-Cys)-Pro-Pro-Lys-Asp-β-Ala-Gly-Arg-Arg-Arg-Arg-Arg-Gln-Arg-Arg-Arg-NH2 | 99.9
38 | Ac-c(Cys-Glu-His-D-2-Nal-Arg-Bal-Ala-Cys)-Pro-Pro-Lys-Asp-β-Ala-Tyr-Gly-Arg-Lys-Arg-Arg-Arg-Gln-Arg-Arg-Arg-NH2 | 99.9
39 | Ac-c(Cys-Glu-His-D-2-Nal-Arg-Bal-Ala-Cys)-Pro-Pro-Lys-Asp-β-Ala-Gly-Arg-Lys-Arg-Arg-Arg-Gln-Arg-Arg-Arg-NH2 | 99.90
40 | Ac-c(Cys-Glu-His-D-2-Nal-Arg-Bal-Ala-Cys)-Pro-Pro-Lys-Asp-β-Ala-Arg-Lys-Arg-Arg-Arg-Gln-Arg-Arg-Arg-NH2 | 99.9
41 | Ac-Nle-c(Cys-D-Ala-His-D-Phe-Arg-Trp-Cys)-β-Ala-Gly-Arg-Arg-Arg-Arg-Arg-Gln-Arg-Arg-Arg-NH2 | 99.9
42 | Ac-Nle-c(Cys-D-Ala-His-D-Phe-Arg-Trp-Cys)-β-Ala-Gly-Arg-Lys-Arg-Arg-Arg-Gln-Arg-Arg-Arg-NH2 | 99.9
43 | Ac-Nle-c(Cys-D-Ala-His-D-Phe-Arg-Trp-Cys)-β-Ala-Tyr-Gly-Arg-Arg-Arg-Arg-Arg-Gln-Arg-Arg-Arg-NH2 | 99.0
44 | Ac-Nle-c(Cys-D-Ala-His-D-Phe-Arg-Trp-Cys)-β-Ala-Tyr-Gly-Arg-Arg-Lys-Arg-Arg-Gln-Arg-Arg-Arg-NH2 | 99.9
45 | Ac-Nle-c(Cys-D-Ala-His-D-Phe-Arg-Trp-Cys)-β-Ala-Arg-Arg-Arg-Arg-Arg-Gln-Arg-Arg-Arg-NH2 | 99.9
46 | Ac-c(Cys-Glu-His-D-2-Nal-Arg-Bal-Ala-Cys)-Pro-Pro-Lys-Asp-β-Ala-Arg-Arg-Lys-Arg-Arg-Gln-Arg-Arg-Arg-NH2 | 99.9
47 | Ac-c(Cys-Glu-His-D-2-Nal-Arg-1-Nal-Ala-Cys)-Pro-Pro-Lys-Asp-β-Ala-Tyr-Gly-Arg-Arg-Lys-Arg-Arg-Gln-Arg-Arg-Arg-NH2 | 99.9
48 | Nle-c(Asp-His-D-2-Nal-Arg-Trp-Lys)-β-Ala-Tyr-Gly-Arg-Lys-Lys-Arg-Arg-Gln-Arg-Arg-Arg-NH2 | 99
49 | Ac-c(Cys-Glu-His-D-2-Nal-Arg-Bal-Ala-Cys)-Pro-Pro-Lys-Asp-β-Ala-Gly-Arg-Arg-Lys-Arg-Arg-Gln-Arg-Arg-Arg-NH2 | 99.9
50 | Ac-c(Cys-Glu-His-D-2-Nal-Arg-Bal-Ala-Cys)-Pro-Pro-Arg-Asp-β-Ala-Arg-Arg-Arg-Arg-Arg-Gln-Arg-Arg-Arg-NH2 | 99.1
51 | Ac-c(Cys-Glu-His-D-2-Nal-Arg-Bal-Ala-Cys)-Pro-Pro-Lys-Asp-β-Ala-Tyr-Aib-Arg-Lys-Lys-Arg-Arg-Gln-Arg-Arg-Arg-NH2 | 99.0
52 | Ac-c(Cys-Glu-His-D-2-Nal-Arg-Trp-Ala-Cys)-Pro-Pro-Lys-Asp-β-Ala-Tyr-Gly-Arg-Gln-Lys-Lys-Arg-Arg-Arg-Arg-Arg-NH2 | 99.0
53 | Ac-c(Cys-Glu-His-D-2-Nal-Arg-1-Nal-Ala-Cys)-Pro-Pro-Lys-Asp-β-Ala-Arg-Arg-Lys-Arg-Arg-Gln-Arg-Arg-Arg-NH2 | 99.9
